# According to PubChem BioAssay AID540303 (National Center for Advancing Translational Sciences (NCATS), 2011):
# Among all 330,000 compounds or so, about 1,000 (0.3%) were called active. This list was built around the results that the source calls inconclusive (neither active nor inactive); the mix of calls is not that of the screen. Calls follow the shape of the dose curve; as a rule, active = well fitted inhibition curve with a large enough effect; inconclusive = small, poorly fitted or top-dose-only effect; inactive = no such curve, though single readings can be large or run the other way; tested in mouse RAW 264.7 cells. Potencies beside an inconclusive call are fits to weak or partial responses and may not hold up.
# Assay: qHTS for Inhibitors of Cell Surface uPA Generation; also: nearly all actives have a fitted effect of over 55% in size
# Details: cell surface uPA generation assay; series mostly up to 38.3 µM; activity change, negative = inhibition: at the top concentration
# Outline: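 Intracellular ATP by ATPlite luminescence serves as read-out: inhibited cell-surface uPA generation prevents LF translocation, preserving ATP. Murine RAW 264.7 macrophages were treated 24 h at 37 C with five-fold serial dilutions, up to 38.3 uM final.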
# % is scaled to controls: 0 for no effect and ±100 for the full control effect; potency is read from the fitted curve at half-maximal effect.
Structure (SMILES),Potency,"activity change, negative = inhibition"
Cc1ccc(CNC(=O)Cn2cnc3c(OCc4ccccc4)ncnc32)o1,"inconclusive: 28.2 µM [inhibitor, single point]",–
Cc1cc(/C=C\c2ccc3cc(N(C)C)ccc3[n+]2C)c(C)n1-c1ccccc1,"inconclusive: 1 µM [inhibitor, full curve, poor fit]",–
CN(C)CCn1c(=N)n(CC(O)c2ccc(Cl)c(Cl)c2)c2ccccc21 (centres undefined),"inconclusive: 12.6 µM [inhibitor, single point]",–
COc1cc(/C=N/NC(=O)c2ccccc2O)ccc1OCC(=O)Nc1ccccc1,–,inactive: -15.3%
O=C(NCc1nc(-c2ccc(C(F)(F)F)cc2)no1)Nc1cc(Cl)cc(Cl)c1,"inconclusive: 31.6 µM [inhibitor, partial curve, poor fit]",–
COc1ccc(C[C@H](N)C(=O)N[C@H]2[C@@H](O)[C@H](n3cnc4c(N(C)C)ncnc43)O[C@@H]2CO)cc1,active: 1 µM,–
CCOC(=O)c1ccccc1N1C(=O)CSC1=S,"inconclusive: 11.2 µM [inhibitor, single point]",–
CC(=O)Oc1c(Br)cc(N(C(C)=O)S(=O)(=O)c2ccccc2)c2ccccc12,"inconclusive: 14.1 µM [inhibitor, single point]",–
Cc1ccc(Nc2ncc3c(n2)CC(C)(C)CC3=O)cc1,"inconclusive: 12.6 µM [inhibitor, single point]",–
CCN(CC)C(=O)Cn1cc(S(=O)(=O)CC(=O)Nc2ccc(F)cc2)c2ccccc21,–,inactive: -2.7%
CCOC(=O)c1sc(NC(=O)CSc2ncccn2)nc1C,"inconclusive: 5.62 µM [inhibitor, partial curve, poor fit]",–
Cc1nc2sccn2c(=O)c1S(=O)(=O)NCC1CCN(Cc2ccccc2Cl)CC1,–,inactive: -5.76%
O=C(NCCCc1ccccc1)C1CCC(=O)N(Cc2ccc(Cl)cc2)C1 (centres undefined),"inconclusive: 1.78 µM [inhibitor, partial curve, poor fit]",–
COc1ccc(NC(=O)CSc2nncc3ccccc23)cc1,"inconclusive: 8.91 µM [inhibitor, partial curve, poor fit]",–
COc1ccc2nc(-n3c(C)ccc3C)sc2c1,–,inactive: -18.5%
COc1ccc(CNC(=O)C(C)n2ccc3cc(S(=O)(=O)N4CCCCCC4)ccc32)cc1 (centres undefined),"inconclusive: 2.24 µM [inhibitor, full curve, poor fit]",–
CC(C)C[C@H]1CN=C(N(C)C)N1CCc1cccc(F)c1,"inconclusive: 5.62 µM [inhibitor, single point]",–
CCCc1[nH]nc2c1C(C1CCCCC1)C(C#N)=C(N)O2 (centres undefined),"inconclusive: 11.2 µM [inhibitor, single point]",–
Cc1ccc(NC(=O)C(C)Oc2ccccc2)cc1S(=O)(=O)N1CCCCCC1 (centres undefined),"inconclusive: 12.6 µM [inhibitor, single point]",–
O=C(NCc1cccnc1)c1cc(-c2cccs2)on1,"inconclusive: 11.2 µM [inhibitor, partial curve]",–
COCCNc1nnc(Cc2ccc(Cl)cc2)c(=O)[nH]1,"inconclusive: 5.01 µM [inhibitor, partial curve, poor fit]",–
COc1cc(NC(=O)c2nccn2C)cc(C(=O)Nc2cccc(C(F)(F)F)c2)c1,"inconclusive: 1.12 µM [inhibitor, full curve, poor fit]",–
O=c1c2cc(-c3ccccc3)sc2ncn1/N=C/c1ccco1,–,inactive: -8.89%

Structure (SMILES),Potency,"activity change, negative = inhibition"
O=C(N/N=C/c1ccc[nH]1)c1ccccc1OCc1ccccc1Cl,–,inactive: 3.12%
Nc1cc(N)nc(SCC(=O)NC2CCCCCCC2)n1,–,inactive: 7.43%
Oc1ccc(Br)cc1-c1cc(-c2ccccc2F)[nH]n1,–,inactive: 0.194%
Cc1cc(NC(=O)c2cccc(Oc3ccccc3)c2)n[nH]1,"inconclusive: 12.6 µM [inhibitor, partial curve, poor fit]",–
COc1ccc(CNC(=O)C[C@H]2C[C@H](C(=O)N(C(C)C)C(C)C)[C@@]3(C)c4[nH]c5ccc(Cl)cc5c4CCN3C2=O)cc1OC,"inconclusive: 11.2 µM [inhibitor, single point]",–
Cc1cccc(C(=O)OCC(=O)NCCNC(=O)COC(=O)c2cccc(C)c2C)c1C,–,inactive: 18.1%
COc1ccc(-n2nc3c(N4CCC(C(=O)NCC(C)c5ccccc5)CC4)nnc(C)c3c2C)cc1 (centres undefined),"inconclusive: 28.2 µM [inhibitor, single point]",–
CCOC(=O)C1=C(c2ccccc2)NC(=O)NC1c1ccc(OC)cc1OC (centres undefined),–,inactive: -1.23%
CN1CCN(C(=O)C23CC4CC(C2)CC(c2ccccc2)(C4)C3)CC1,–,inactive: -1.64%
COc1ccc(NC(=O)CSCC(=O)N(C)CC(=O)Nc2cccc3ccccc23)cc1,–,inactive: 0.755%
O=C(Nc1nc2ccccc2[nH]1)c1cc2ccccc2o1,–,inactive: -15.6%
CC(C)n1c(=S)[nH]c2ccccc21,–,inactive: 0.494%
CCOc1ccc(CNC(=O)C2CCN(c3nnc(C)c4c(C)n(-c5ccc(C)cc5)nc34)CC2)cc1,"inconclusive: 10 µM [inhibitor, single point]",–
O=c1c2ccccc2nc(-c2cccc(Cl)c2)n1O,"inconclusive: 28.2 µM [inhibitor, single point]",–
c1ccc(-n2ncc3c(NC4CCCCCC4)ncnc32)cc1,"inconclusive: 10 µM [inhibitor, partial curve, poor fit]",–
CCN(CC)C(=O)c1cc(Cl)ccn1,–,inactive: 2.68%
O=C(NCC(c1ccco1)N1CCc2ccccc21)C(=O)Nc1ccccc1F (centres undefined),"inconclusive: 12.6 µM [inhibitor, single point]",–
COc1ccccc1OCCCN1C(=O)C(=O)c2cccc(C)c21,"inconclusive: 10 µM [inhibitor, partial curve, poor fit]",–
COc1ccc(C(=O)Nc2cc3c4c(c2)C(C)C(=O)N4CCC3)cc1 (centres undefined),"inconclusive: 6.31 µM [inhibitor, single point]",–
CCCC[C@@H](CNC)NC[C@H](NCCCCC1CCCCC1)C(C)C,"inconclusive: 12.6 µM [inhibitor, single point]",–
Nc1c(C(=O)Nc2ccc(Br)cc2)sc2nc(-c3ccco3)ccc12,–,inactive: -0.549%
CCN(CC(=O)N1CCCC1)S(=O)(=O)c1cc(C)ccc1OC,–,inactive: -0.26%
O=C(CNC(=O)c1ccco1)Nc1ccc(Br)cc1,"inconclusive: 1.26 µM [inhibitor, single point]",–

Structure (SMILES),Potency,"activity change, negative = inhibition"
Cc1ccc(C(=O)NCC(=O)NC2CC2)cc1,"inconclusive: 2.82 µM [inhibitor, full curve, poor fit]",–
O=C1NC[C@@H](c2ccccc2)OC(=O)[C@@H](Cc2ccc(F)cc2)C/C=C\C[C@@H]1CC(=O)N(CCO)Cc1ccccc1,"inconclusive: 10 µM [inhibitor, partial curve, poor fit]",–
CC1Sc2ccc(S(=O)(=O)CCC(=O)N3CCN(c4cccc(Cl)c4)CC3)cc2NC1=O (centres undefined),"inconclusive: 11.2 µM [inhibitor, partial curve, poor fit]",–
CCCC[C@@H](CN[C@H](C)CNC)NCC1CCC(C(C)(C)C)CC1 (some centres undefined),"inconclusive: 11.2 µM [inhibitor, partial curve, poor fit]",–
COC(=O)c1c(C)[nH]c(-c2csc(N)n2)c1C,–,inactive: -9.32%
COc1ccc(-c2nc(NC(=O)CCNC(=O)c3ccco3)sc2C)cc1,"inconclusive: 12.6 µM [inhibitor, single point]",–
COc1ccc(C(=O)Nc2nncs2)c(OC)c1,active: 11.2 µM,–
C=CCNc1nnc(Cc2ccc(C(C)C)cc2)c(=O)[nH]1,"inconclusive: 3.98 µM [inhibitor, partial curve]",–
CCOC(=O)C1(CCOc2ccccc2)CCN(Cc2ccc(O)c(Cl)c2)CC1,"inconclusive: 12.6 µM [inhibitor, single point]",–
Cc1onc(-c2ccccc2)c1C(=O)NCc1ccc(F)cc1,"inconclusive: 5.62 µM [inhibitor, partial curve, poor fit]",–
Nc1ccc2nn(-c3ccc(Cl)cc3)nc2c1,"inconclusive: 3.98 µM [inhibitor, partial curve, poor fit]",–
CCCCNc1c(-c2ccc(OC)c(SC(C)CC)c2)nc2ccc(C)cn12 (centres undefined),"inconclusive: 28.2 µM [inhibitor, single point]",–
O=C(O)/C=C/c1cn(-c2ccccc2)nc1-c1cccs1,"inconclusive: 10 µM [inhibitor, partial curve, poor fit]",–
Cc1ccc2nc(SCCCCOc3ccccc3)[nH]c2c1,–,inactive: 2.19%
Cc1cccc(CS(=O)(=O)c2ncc(Cl)c(C(=O)NCc3ccccc3)n2)c1,"inconclusive: 0.891 µM [inhibitor, full curve, poor fit]",–
CCN1/C(=C\c2ccc3cc(C)ccc3[n+]2CC)Sc2cc(C)c(C)cc21,"inconclusive: 2 µM [inhibitor, full curve, poor fit]",–
CCN(CC)c1ccc(NC(=O)CSc2ccsc2[N+](=O)[O-])c(C)c1,–,inactive: -1.49%
O=c1oc2ccccc2c(Nc2ccc(Cl)cc2)c1[N+](=O)[O-],"inconclusive: 31.6 µM [inhibitor, partial curve, poor fit]",–
CCCC(=O)N1CCN(c2ccc(NC(=O)c3ccc([N+](=O)[O-])o3)cc2)CC1,–,inactive: -13.4%
CCN(CC)S(=O)(=O)c1cccc(-c2cn3cc(C)ccc3n2)c1,–,inactive: -11.9%
COc1ccc(C2CC(c3ccc(Cl)cc3)=NN2c2ccc(S(N)(=O)=O)cc2)cc1 (centres undefined),"inconclusive: 28.2 µM [inhibitor, single point]",–
COc1c(C(C)C)oc2cc3oc(=O)ccc3cc12,"inconclusive: 6.31 µM [inhibitor, single point]",–
O=C(Nc1nnc(-c2ccc(F)cc2)s1)c1ccco1,–,inactive: -2.01%
